{"source": "patent US11123432B2", "about": "“Antimicrobial insect repellent composition” (YEDITEPE UNIVERSITESi, priority 2016, dated 2021)", "assay_in_all_cases": "Modified disc diffusion, antimicrobial activity", "format_in_all_cases": "cell-based", "key": {"[1]": {"test_system": "Klebsiella pneumoniae", "settings": "Table 2; discs impregnated with EBAAP; Klebsiella pneumoniae ATCC 13883"}, "[2]": {"test_system": "Pseudomonas aeruginosa", "settings": "Table 2; discs impregnated with EBAAP; Pseudomonas aeruginosa ATCC 27853"}, "[3]": {"test_system": "Fusarium oxysporum", "settings": "Table 2, discs impregnated with EBAAP"}, "[4]": {"test_system": "Penicillium vinaceum", "settings": "Table 2, discs impregnated with EBAAP"}, "[5]": {"test_system": "Escherichia coli", "settings": "Table 2; discs impregnated with EBAAP; Escherichia coli ATCC 25922"}, "[6]": {"test_system": "Staphylococcus aureus", "settings": "Table 2; discs impregnated with EBAAP; Staphylococcus aureus ATCC 29213"}, "[7]": {"test_system": "Aspergillus niger", "settings": "Table 2, discs impregnated with EBAAP"}, "[8]": {"test_system": "Candida albicans", "settings": "Table 2, discs impregnated with EBAAP"}, "[9]": {"test_system": "Botrytis cinerea", "settings": "Table 2; discs impregnated with EBAAP; Botrytis cinerae"}, "[10]": {"test_system": "Acinetobacter baumannii", "settings": "Table 2, discs impregnated with EBAAP"}, "[11]": {"test_system": "Bacillus subtilis", "settings": "Table 2; discs impregnated with EBAAP; Bacillus subtilis ATCC 6633"}}, "note": "At least one structure is not confirmed: it was looked up by name or label, or the drawing left a doubt."}
{"smiles": "CCCCN(CCC(=O)OCC)C(C)=O", "note": "[EBAAP, Ethyl Butyl acetylaminopropionate]", "values": [{"measurement": "Antimicrobial activity", "setting": "[1]", "value": "+"}, {"measurement": "Antimicrobial activity", "setting": "[2]", "value": "+"}, {"measurement": "Antimicrobial activity", "setting": "[3]", "value": "+"}, {"measurement": "Antimicrobial activity", "setting": "[4]", "value": "+"}, {"measurement": "Antimicrobial activity", "setting": "[5]", "value": "−"}, {"measurement": "Antimicrobial activity", "setting": "[6]", "value": "+"}, {"measurement": "Antimicrobial activity", "setting": "[7]", "value": "+"}, {"measurement": "Antimicrobial activity", "setting": "[8]", "value": "+"}, {"measurement": "Antimicrobial activity", "setting": "[9]", "value": "+"}, {"measurement": "Antimicrobial activity", "setting": "[10]", "value": "+"}, {"measurement": "Antimicrobial activity", "setting": "[11]", "value": "+"}]}
